PubChem BioAssay AID504786 – Drosophila RNAi Screening Center – 2011

- Aim: 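Positive regulators of HIF-driven reporter output in Drosophila cells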 (primary screen)
- Cell system: Drosophila S2 cells with a stable HIF luciferase reporter
- Knock-down reagent: long dsRNA against Drosophila genes, about 0.2 µg dsRNA per well of a 384-well plate
- Time to read-out: three days of knock-down, then 20 h of DFO before reading
- Conditions: desferrioxamine (DFO) at 100 µM, an iron chelator that mimics hypoxia, for 20 h
- Detection: 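Firefly luciferase driven by the mouse ldh-a hypoxia-response element, measured after 20 h of 100 µM DFO; z-scores per plate, higher means more signal lost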
- Direction: z-score: higher = stronger loss of HIF reporter signal
In all, the deposit lists about 21,000 reagents; shown is an unselected part of those with a known target gene and a result. 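Primary screen; positive scores mean lost reporter signal, so the sign may be inverted from the usual convention.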 Further read-outs or replicates are left out here.

target gene	dsRNA	z-score, replicate 1
Naxd (GeneID 40085)	DRSC09722	-0.3
nullo (GeneID 31652)	DRSC18807	-0.1
Rich (GeneID 40456)	DRSC11607	-0.2
raptor (GeneID 31543)	DRSC18359	4.7
CG9067 (GeneID 36197)	DRSC07328	-0.5
CG6362 (GeneID 37032)	DRSC07413	-0.2
cbc (GeneID 36494)	DRSC06957	0.3
CG10914 (GeneID 37075)	DRSC06010	-0.4
wap (GeneID 33131)	DRSC20626	0.2
CG6171 (GeneID 41872)	DRSC15982	0
CG14374 (GeneID 50026)	DRSC14834	-0.2
CG11570 (GeneID 39357)	DRSC09844	-0.2
moon (GeneID 32176)	DRSC19497	-0.4
Atg6 (GeneID 42850)	DRSC15798	-0.2
spag4 (GeneID 34581)	DRSC02973	-0.2
CG34232 (GeneID 5740195)	DRSC05332	-0.3
Yod1 (GeneID 38603)	DRSC10433	-0.1
jub (GeneID 32351)	DRSC19367	0.7
CG34309 (GeneID 5740636)	DRSC14838	-0.4
CG2104 (GeneID 40702)	DRSC12304	-0.3
CASK (GeneID 42567)	DRSC14588	-0.5
CASK (GeneID 42567)	DRSC16597	0.1
CASK (GeneID 42567)	DRSC16598	1
chas (GeneID 32748)	DRSC19508	-0.2
chas (GeneID 32748)	DRSC19509	-0.3
Sox14 (GeneID 37822)	DRSC04656	-0.5
RpL26 (GeneID 40060)	DRSC10726	7.3
Drgx (GeneID 5740176)	DRSC00278	-0.3
Drgx (GeneID 5740176)	DRSC00537	-0.5
Nek2 (GeneID 31696)	DRSC18124	-0.4
Dlip1 (GeneID 53580)	DRSC18460	-0.3
Osi14 (GeneID 40770)	DRSC12368	0.3
Rrp40 (GeneID 319033)	DRSC00074	-0.4
CG9254 (GeneID 34773)	DRSC01969	-0.3

In a second layout: 2 of the entries above.
target gene | dsRNA | z-score, replicate 1
CG10914 (GeneID 37075) | DRSC06010 | -0.4
wap (GeneID 33131) | DRSC20626 | 0.2
